Data on 31 targets can be found in the supplement of paper PMC10849652.

The chains behind the UniProt entries cited, without tags or fusion partners. Where a name states a change or a piece, a line headed by the entry shows the natural chain unless it says otherwise.
UniProt Q5M7Z0: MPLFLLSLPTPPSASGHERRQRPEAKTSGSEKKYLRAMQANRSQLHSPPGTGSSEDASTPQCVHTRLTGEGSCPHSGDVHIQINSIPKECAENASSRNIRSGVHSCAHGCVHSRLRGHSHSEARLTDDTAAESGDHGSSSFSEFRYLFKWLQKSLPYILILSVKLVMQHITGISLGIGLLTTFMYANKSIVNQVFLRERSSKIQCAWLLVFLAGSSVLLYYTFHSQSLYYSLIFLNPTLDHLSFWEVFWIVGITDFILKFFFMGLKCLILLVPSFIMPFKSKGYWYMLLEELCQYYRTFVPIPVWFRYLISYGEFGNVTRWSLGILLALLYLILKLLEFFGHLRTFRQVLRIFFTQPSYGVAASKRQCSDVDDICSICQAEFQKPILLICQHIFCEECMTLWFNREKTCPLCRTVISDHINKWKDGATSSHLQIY
UniProt O60930: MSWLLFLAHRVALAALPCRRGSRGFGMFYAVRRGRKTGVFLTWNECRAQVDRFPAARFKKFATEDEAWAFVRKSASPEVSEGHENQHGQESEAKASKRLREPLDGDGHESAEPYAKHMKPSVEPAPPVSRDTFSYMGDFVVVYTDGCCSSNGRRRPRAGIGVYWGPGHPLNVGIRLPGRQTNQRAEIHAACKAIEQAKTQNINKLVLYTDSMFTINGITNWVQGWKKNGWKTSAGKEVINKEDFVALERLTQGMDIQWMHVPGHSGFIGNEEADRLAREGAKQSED
UniProt Q7L0Q8: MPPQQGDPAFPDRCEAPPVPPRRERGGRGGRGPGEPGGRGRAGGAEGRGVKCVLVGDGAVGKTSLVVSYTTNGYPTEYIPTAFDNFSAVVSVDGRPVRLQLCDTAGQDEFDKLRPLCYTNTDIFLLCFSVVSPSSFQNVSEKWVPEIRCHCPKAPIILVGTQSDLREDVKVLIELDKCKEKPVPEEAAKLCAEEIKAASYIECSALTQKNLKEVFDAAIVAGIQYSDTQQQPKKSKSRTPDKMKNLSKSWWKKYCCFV
UniProt Q96LT9: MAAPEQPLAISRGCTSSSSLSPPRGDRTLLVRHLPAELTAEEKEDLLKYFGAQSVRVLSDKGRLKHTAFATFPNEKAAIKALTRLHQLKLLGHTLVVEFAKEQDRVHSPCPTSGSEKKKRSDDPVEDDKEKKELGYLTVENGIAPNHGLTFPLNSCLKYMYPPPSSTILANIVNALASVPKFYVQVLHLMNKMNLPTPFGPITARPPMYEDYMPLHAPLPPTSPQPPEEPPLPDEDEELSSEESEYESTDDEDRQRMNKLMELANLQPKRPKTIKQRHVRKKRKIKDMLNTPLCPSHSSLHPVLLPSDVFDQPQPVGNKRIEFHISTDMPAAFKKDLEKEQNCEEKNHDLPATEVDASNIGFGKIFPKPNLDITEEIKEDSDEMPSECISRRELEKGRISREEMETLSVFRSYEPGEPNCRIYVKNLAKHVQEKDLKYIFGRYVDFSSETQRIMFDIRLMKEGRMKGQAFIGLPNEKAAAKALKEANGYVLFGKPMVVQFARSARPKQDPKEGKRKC
UniProt Q6ZS11: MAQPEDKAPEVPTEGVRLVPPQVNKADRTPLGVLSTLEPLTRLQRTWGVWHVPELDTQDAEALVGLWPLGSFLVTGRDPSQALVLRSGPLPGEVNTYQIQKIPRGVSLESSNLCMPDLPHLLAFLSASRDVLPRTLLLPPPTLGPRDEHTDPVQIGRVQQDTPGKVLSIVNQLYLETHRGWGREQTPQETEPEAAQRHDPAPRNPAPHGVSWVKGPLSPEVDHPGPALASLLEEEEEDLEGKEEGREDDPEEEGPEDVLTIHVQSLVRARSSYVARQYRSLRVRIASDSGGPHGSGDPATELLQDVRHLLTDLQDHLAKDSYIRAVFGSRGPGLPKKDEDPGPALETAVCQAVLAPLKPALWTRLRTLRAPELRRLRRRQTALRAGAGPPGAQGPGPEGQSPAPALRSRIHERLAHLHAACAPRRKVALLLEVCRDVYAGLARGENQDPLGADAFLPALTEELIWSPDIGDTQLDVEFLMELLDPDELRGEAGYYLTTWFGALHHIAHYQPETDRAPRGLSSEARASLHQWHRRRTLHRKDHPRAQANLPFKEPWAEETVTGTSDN
UniProt Q9Y225: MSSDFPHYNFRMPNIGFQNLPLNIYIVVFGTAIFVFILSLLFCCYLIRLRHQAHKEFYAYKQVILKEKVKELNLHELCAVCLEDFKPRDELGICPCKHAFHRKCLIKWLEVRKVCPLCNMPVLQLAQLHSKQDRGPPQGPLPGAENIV
UniProt P17081: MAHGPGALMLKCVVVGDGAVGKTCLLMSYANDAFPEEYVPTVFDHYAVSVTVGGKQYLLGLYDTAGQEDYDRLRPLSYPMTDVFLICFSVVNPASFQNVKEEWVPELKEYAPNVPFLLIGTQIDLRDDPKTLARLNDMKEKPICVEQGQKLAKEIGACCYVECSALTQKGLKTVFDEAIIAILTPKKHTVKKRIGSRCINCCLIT
UniProt Q8NCN4: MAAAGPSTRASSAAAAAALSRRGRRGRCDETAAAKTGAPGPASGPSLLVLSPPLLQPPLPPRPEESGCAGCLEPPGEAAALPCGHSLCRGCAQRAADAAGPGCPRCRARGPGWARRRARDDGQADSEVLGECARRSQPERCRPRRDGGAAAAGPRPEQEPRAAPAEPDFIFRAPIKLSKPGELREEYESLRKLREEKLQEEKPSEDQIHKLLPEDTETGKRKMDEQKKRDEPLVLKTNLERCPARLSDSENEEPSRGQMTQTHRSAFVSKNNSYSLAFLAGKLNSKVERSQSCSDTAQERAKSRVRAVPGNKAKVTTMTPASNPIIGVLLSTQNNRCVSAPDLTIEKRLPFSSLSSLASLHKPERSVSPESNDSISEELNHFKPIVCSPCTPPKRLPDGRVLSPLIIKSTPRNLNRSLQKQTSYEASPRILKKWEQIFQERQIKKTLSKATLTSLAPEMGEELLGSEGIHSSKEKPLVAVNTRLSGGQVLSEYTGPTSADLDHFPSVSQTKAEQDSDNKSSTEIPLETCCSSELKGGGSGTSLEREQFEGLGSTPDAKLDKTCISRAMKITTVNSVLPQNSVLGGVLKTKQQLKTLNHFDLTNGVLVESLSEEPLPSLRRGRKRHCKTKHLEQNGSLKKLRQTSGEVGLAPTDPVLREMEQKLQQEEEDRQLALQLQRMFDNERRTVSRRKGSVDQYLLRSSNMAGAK
UniProt Q9Y4L5, whole entry, looked up: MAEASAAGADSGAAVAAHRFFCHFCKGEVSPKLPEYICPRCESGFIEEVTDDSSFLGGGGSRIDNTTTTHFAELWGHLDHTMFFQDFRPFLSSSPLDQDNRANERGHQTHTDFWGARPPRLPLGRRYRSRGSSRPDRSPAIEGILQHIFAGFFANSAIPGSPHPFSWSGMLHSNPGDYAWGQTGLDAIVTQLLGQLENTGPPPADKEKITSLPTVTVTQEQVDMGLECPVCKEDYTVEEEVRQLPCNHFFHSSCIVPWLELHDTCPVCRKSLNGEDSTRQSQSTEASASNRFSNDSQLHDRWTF
UniProt Q9H920: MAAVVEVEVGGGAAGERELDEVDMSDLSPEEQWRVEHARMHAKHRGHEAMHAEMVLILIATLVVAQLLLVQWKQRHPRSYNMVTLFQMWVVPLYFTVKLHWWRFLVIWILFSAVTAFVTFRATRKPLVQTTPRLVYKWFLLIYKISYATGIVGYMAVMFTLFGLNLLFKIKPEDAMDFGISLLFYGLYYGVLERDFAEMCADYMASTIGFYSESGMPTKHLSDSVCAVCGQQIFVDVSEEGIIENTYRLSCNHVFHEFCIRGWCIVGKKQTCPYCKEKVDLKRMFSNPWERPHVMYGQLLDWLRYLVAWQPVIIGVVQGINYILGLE
UniProt P34096: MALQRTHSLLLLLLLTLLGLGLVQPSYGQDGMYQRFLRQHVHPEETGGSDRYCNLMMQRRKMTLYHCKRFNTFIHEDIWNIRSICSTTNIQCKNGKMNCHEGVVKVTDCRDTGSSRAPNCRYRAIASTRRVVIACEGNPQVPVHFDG
UniProt Q86UA6: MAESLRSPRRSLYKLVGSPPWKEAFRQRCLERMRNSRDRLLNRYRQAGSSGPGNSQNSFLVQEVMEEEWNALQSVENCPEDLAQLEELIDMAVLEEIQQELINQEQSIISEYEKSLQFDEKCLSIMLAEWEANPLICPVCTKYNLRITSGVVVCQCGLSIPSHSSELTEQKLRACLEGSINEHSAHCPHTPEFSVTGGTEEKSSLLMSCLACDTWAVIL
UniProt Q969X0: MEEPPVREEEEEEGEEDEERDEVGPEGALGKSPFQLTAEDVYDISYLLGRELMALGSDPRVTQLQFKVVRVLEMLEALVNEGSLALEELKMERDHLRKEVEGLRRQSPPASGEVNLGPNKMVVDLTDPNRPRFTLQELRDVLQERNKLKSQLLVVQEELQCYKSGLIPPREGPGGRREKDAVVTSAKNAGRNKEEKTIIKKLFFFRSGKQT
UniProt Q99496: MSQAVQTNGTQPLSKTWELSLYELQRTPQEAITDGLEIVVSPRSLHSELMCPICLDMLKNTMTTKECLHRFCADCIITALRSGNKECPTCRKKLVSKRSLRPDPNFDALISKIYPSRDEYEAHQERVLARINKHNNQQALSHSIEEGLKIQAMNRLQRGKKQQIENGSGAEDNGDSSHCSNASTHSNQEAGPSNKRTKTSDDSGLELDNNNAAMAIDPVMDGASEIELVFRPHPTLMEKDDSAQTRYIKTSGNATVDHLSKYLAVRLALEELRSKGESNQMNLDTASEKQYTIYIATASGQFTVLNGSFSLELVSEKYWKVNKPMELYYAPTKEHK
UniProt Q9GZN7, whole entry, looked up: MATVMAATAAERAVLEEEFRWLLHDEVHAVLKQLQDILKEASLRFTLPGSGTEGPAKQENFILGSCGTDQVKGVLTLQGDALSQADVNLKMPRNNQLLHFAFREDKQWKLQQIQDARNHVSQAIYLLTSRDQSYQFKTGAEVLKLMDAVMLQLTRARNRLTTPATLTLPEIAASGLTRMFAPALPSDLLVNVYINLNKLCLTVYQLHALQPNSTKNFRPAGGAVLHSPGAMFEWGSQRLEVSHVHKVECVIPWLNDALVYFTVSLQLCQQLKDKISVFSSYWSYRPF
UniProt Q9HAU8: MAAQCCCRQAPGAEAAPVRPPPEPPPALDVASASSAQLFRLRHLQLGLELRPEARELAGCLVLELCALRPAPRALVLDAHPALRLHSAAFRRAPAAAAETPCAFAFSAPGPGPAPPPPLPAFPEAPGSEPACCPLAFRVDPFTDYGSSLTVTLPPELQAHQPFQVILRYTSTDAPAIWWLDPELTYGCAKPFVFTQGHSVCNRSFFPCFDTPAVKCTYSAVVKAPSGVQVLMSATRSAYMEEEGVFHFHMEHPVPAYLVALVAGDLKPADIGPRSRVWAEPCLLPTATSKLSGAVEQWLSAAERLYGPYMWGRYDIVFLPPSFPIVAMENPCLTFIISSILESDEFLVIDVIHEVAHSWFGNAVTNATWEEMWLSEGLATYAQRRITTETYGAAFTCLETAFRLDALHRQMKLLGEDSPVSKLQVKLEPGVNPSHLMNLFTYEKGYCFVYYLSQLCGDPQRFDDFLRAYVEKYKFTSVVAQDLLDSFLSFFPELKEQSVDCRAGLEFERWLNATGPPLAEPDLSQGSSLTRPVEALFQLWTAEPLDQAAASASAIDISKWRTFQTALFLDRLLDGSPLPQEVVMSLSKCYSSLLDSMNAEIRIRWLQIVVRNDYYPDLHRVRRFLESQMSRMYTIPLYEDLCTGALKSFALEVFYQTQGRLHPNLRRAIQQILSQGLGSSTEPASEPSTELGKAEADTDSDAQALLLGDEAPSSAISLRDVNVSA
UniProt Q96E14: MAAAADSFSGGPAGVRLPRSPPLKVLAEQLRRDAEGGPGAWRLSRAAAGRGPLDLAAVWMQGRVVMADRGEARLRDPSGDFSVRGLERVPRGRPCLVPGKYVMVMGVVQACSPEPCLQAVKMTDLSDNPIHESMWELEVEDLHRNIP
UniProt Q96G75, whole entry, looked up: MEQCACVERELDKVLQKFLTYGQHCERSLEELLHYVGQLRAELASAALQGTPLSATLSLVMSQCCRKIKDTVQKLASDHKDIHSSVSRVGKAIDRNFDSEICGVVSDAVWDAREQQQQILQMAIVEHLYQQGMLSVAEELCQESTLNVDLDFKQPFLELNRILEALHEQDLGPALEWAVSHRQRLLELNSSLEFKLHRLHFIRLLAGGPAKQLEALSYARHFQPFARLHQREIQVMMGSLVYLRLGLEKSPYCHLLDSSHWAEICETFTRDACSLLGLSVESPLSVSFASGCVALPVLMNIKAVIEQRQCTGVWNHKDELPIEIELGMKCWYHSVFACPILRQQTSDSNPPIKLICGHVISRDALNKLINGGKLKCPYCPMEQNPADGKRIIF
UniProt Q99942: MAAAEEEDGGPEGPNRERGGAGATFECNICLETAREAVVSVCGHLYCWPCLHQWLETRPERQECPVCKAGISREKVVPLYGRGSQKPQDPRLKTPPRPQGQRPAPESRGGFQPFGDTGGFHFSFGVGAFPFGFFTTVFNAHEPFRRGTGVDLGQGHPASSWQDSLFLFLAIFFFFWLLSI
UniProt P78317: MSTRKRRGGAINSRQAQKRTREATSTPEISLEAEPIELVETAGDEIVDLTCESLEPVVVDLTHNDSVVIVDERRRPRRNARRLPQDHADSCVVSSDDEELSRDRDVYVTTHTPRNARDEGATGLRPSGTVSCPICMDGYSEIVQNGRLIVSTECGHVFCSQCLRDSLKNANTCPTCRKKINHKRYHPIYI

The list shows a part of the results.

Holding throughout (experiment): log2 fold change, soluble protein after heating vs DMSO (PISA); higher = thermal stabilisation; K562 lysate, 10 uM; active = over 0.2 and 3.5 SD of the protein, either way, in both replicates (recomputed)
Compound in assay [1]: C1=CC=C(C=C1)[C@H](COC2=CC3=C(C=C2)NC(=O)N3)NC(=O)C4=CC=CN(C4=O)CC5=CC(=C(C=C5)F)F
Put shortly: (§1)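 K562 pellets were dounce-homogenised in PBS pH 7.4 containing 1 mM MgCl2, and the crude extract, at 1 mg/mL protein, was exposed to 10 μM compound for 30 min. Aliquots were heated for 3 min across 48°C-58°C, pooled, brought to 0.5% NP-40 at 4°C and spun at 21,000xg for 90 min, with the supernatant taken as soluble protein. TMTpro 16plex LC-MS/MS with equalised channel sums quantified that protein. Values are log-two fold changes in thermal stability relative to solvent controls, taken from duplicates.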

Compound in assay [2]: CC1=C(SC2=C1C(=N[C@H](C3=NN=C(N32)C)CC(=O)N)C4=CC=C(C=C4)Cl)C
Put shortly:
as §1

Compound in assay [3]: Cc1sc2c(c1C)C(c1ccc(Cl)cc1)=N[C@@H](CC(=O)OC(C)(C)C)c1nnc(C)n1-2
The method, boiled down:
as §1

Compound in assay [4]: c1ccc([C@@H]2C[C@H]2NC2CCNCC2)cc1
Put shortly:
as §1

Compound in assay [5]: CC1=C2C(=CC=C1)N=C(N(C2=O)C3=CC=CC=C3C)CN4C=NC5=C(N=CN=C54)N
Put shortly: as §1

Turning to RNF17 (UniProt Q9BXT8), the log2 fold change in assay [1] is inactive: -0.241; in assay [2], active: 1; in assay [3], inactive: 0.129; in assay [4], inactive: 0.451.

Take RNFT1 (UniProt Q5M7Z0): the log2 fold change in assay [3] was inactive: 0.069; in assay [4] it was inactive: -0.049.

As to RNASEH1 (UniProt O60930), the log2 fold change in assay [4] was inactive: 0.11.

As to RHOU (UniProt Q7L0Q8), the log2 fold change in assay [5] was inactive: 0.065; in assay [3], inactive: -0.1; in assay [4], inactive: -0.015.

As to RNPC3 (UniProt Q96LT9), the log2 fold change in assay [3] was inactive: -0.029; in assay [4], inactive: -0.034.

As for RINL (UniProt Q6ZS11), the log2 fold change in assay [1] is inactive: -0.008; in assay [2] it was inactive: 0.016; in assay [3], inactive: -0.125; in assay [4], inactive: 0.205.

As to RNF24 isoform 2 (UniProt Q9Y225), the log2 fold change is inactive: -0.219 in assay [1], inactive: 0.037 in assay [2] and inactive: -0.115 in assay [4].

On to RNF185 (UniProt Q96GF1), for which the log2 fold change in assay [1] was inactive: -0.116; in assay [2] it was inactive: -0.075; in assay [4] it was inactive: 0.081.

With RLF (UniProt Q13129), the values for the log2 fold change in assay [3] and in assay [4] were inactive: -0.199 and inactive: 0.011, respectively.

Turning to RHOQ (UniProt P17081), in assay [5], the log2 fold change is inactive: -0.137.

On to RNF169 (UniProt Q8NCN4), for which the log2 fold change in assay [1] was inactive: 0.201; in assay [2] it was inactive: -0.239; in assay [3], inactive: -0.025.

Regarding RP9 (UniProt Q8TA86), the log2 fold change in assay [5] was inactive: 0.005; in assay [3], inactive: -0.005; in assay [4], inactive: -0.029.

On to RPL32 (UniProt D3YTI8), for which the log2 fold change in assay [3] was inactive: -0.031.

On to RNF115 (UniProt Q9Y4L5), for which the log2 fold change was inactive: 0.17 in assay [5] and inactive: -0.068 in assay [4].

RNF121 (UniProt Q9H920): the log2 fold change was inactive: -0.109 in assay [1], inactive: -0.032 in assay [2], inactive: 0.09 in assay [3] and inactive: -0.124 in assay [4].

For RNF214 (UniProt Q8ND24), the log2 fold change was inactive: -0.038 in assay [1]; inactive: 0 in assay [2]; inactive: 0.002 in assay [5]; inactive: 0.077 in assay [3]; inactive: 0.016 in assay [4].

Take RNF10 isoform 2 (UniProt Q8N5U6): the log2 fold change in assay [3] was inactive: -0.109.

Take RNASE4 (UniProt P34096): the log2 fold change is inactive: 0.031 in assay [5] and inactive: -0.022 in assay [3].

As for RNF8 (UniProt O76064), the log2 fold change was inactive: -0.152 in assay [1], inactive: -0.083 in assay [2], inactive: 0.095 in assay [3] and inactive: -0.046 in assay [4].

For RPAIN isoform 8 (UniProt Q86UA6), the log2 fold change in assay [1] was inactive: 0.02; in assay [2], inactive: -0.033; in assay [5], inactive: -0.096; in assay [4] it was inactive: 0.065.

On to RILPL2 (UniProt Q969X0), for which the log2 fold change in assay [1] is inactive: -0.231; in assay [2], inactive: -0.012; in assay [4], inactive: -0.115.

Regarding RNF2 (UniProt Q99496), the log2 fold change in assay [5] was inactive: 0.03; in assay [3], inactive: -0.091; in assay [4] it was inactive: 0.343.

For ROGDI (UniProt Q9GZN7), the log2 fold change is inactive: -0.238 in assay [1], inactive: 0.082 in assay [2], inactive: 0.005 in assay [3] and inactive: 0 in assay [4].

Take RNPEPL1 (UniProt Q9HAU8): the log2 fold change in assay [5] is inactive: -0.334; in assay [3], inactive: -0.024; in assay [4], inactive: 0.102.

As to RMI2 (UniProt Q96E14), the values for the log2 fold change in assay [5] and in assay [3] were inactive: -0.18 and inactive: 0.079, respectively.

As to RPL10, A0A087WV22, the figures for the log2 fold change in assay [1], in assay [2] and in assay [3] were inactive: 0.068, inactive: -0.035 and inactive: -0.557, respectively.

Turning to RMND5B (UniProt Q96G75), the log2 fold change was inactive: -0.095 in assay [5] and inactive: 0.066 in assay [4].

For the target RNF5 (UniProt Q99942), the log2 fold change in assay [1] was inactive: -0.03; in assay [2], inactive: -0.008; in assay [3], inactive: 0.069; in assay [4], inactive: -0.02.

As to RNF4 (UniProt P78317), the log2 fold change in assay [1] was inactive: 0.092; in assay [2], inactive: 0.076; in assay [5], inactive: 0.059; in assay [4], inactive: -0.12.

Take RHOXF2B (UniProt P0C7M4): the log2 fold change in assay [5] was inactive: 0.032; in assay [3] it was inactive: 0.029.

RPL22L1 (UniProt Q6P5R6): the log2 fold change in assay [1] was inactive: 0.117; in assay [2], inactive: 0; in assay [3], inactive: 0.932.
